Laboratory results taken from PubChem BioAssay AID504444 (National Center for Advancing Translational Sciences (NCATS), 2011).
Among all 360,000 compounds or so, about 7,500 (2.1%) were called active. Inconclusive results, whose numbers are uncertain, are shown with a selection of clear calls. Calls follow the shape of the dose curve; as a rule, active = well fitted inhibition curve with a large enough effect; inconclusive = small, poorly fitted or top-dose-only effect, or effect the other way; inactive = flat fitted curve, though single readings scatter. Potencies of inconclusive entries are doubtful fits and often do not repeat.

Assay: Nrf2 qHTS screen for inhibitors; also: nearly all actives have a fitted effect of over 60% in size
Settings: A549 ARE-Fluc reporter, luciferase luminescence, 18-24 h; series mostly up to 46 µM
Outline: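 A549 ARE_Fluc cells (5000/well, 5% FBS OPTI-MEM) pre-incubated 2 h, then treated with compounds 18-24 h at 37C/5% CO2 in concentration-response. CellTiter-Fluor viability read first; BugLite luciferase luminescence after 15 min at room temperature gives Nrf2 activity.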
Potency is read from the fitted curve at half-maximal effect.

SMILES	Potency
CCc1nnc(NS(=O)(=O)c2ccc(N/C=C\C(=O)c3cccc4ccccc34)cc2)s1	inconclusive: 2.31 µM [falling, partial curve, poor fit]
COc1cc(C(=O)Nc2ccc3c(c2)OCO3)ccc1OCc1c(C)noc1C	inconclusive: 9.2 µM [falling, partial curve, poor fit]
CCOC(=O)N1CCN(C(=O)c2cc3ccccc3o2)CC1	inconclusive: 29.1 µM [falling, single point]
C[n+]1ccccc1N1CCN(c2ccccc2Cl)CC1	active: 3.26 µM
c1ccc(-c2cc(-c3ccncc3)nc3ccc4ccccc4c23)cc1	inconclusive: 16.4 µM [falling, single point]
CC(NC(=O)c1ccccc1O)c1ccccc1 (centres undefined)	inactive
CCc1ccc(OCCCn2c(CCNC(=O)C3CCCCC3)nc3ccccc32)cc1	inactive
COc1ccc(CNc2ncnc3cc(Cl)ccc23)cc1	inconclusive: 23.1 µM [falling, single point]
CC(=O)Nc1ccc(NC(=O)CC23CC4CC(CC(C4)C2)C3)cc1	inconclusive: 4.61 µM [activator, partial curve, poor fit]
O=C(Nc1ccon1)C1CCN(S(=O)(=O)c2cccs2)CC1	inactive
COc1ccc(-c2cc(C(F)(F)F)n3nc(C(=O)N(C)Cc4ccccc4)cc3n2)cc1OC	inconclusive: 14.6 µM [falling, partial curve]
CSCC[C@H](NC(=O)c1ccc(Cl)c([N+](=O)[O-])c1)c1nc2ccccc2[nH]1	inactive
Cc1ccc2cccc(NS(=O)(=O)c3ccccc3)c2n1	inconclusive: 4.61 µM [falling, partial curve, poor fit]
CN(C)C1(CNC(=S)Nc2ccccc2C(F)(F)F)CCCCC1	inconclusive: 6.51 µM [activator, partial curve]
O=C(COC(=O)CCc1c[nH]c2ccccc12)NC1CCS(=O)(=O)C1 (centres undefined)	inconclusive: 23.1 µM [activator, partial curve, poor fit]
COc1ccc(-n2cc(C(=O)c3ccc4ccccc4c3O)cn2)cc1	inconclusive: 5.8 µM [activator, partial curve]
C=CC(COCc1ccccc1)N(Cc1ccccc1)S(=O)(=O)c1ccccc1Br (centres undefined)	inconclusive: 0.082 µM [falling, full curve, poor fit]
COc1cc(C(=O)/C=C/c2cccnc2)c([N+](=O)[O-])cc1OC	active: 18.4 µM
COc1cccc(NC(=O)c2cc3ccccc3oc2=O)c1	inconclusive: 5.8 µM [activator, full curve]

A section of the results above, as a working copy:
SMILES	Potency
C=CC(COCc1ccccc1)N(Cc1ccccc1)S(=O)(=O)c1ccccc1Br (centres undefined)	inconclusive: 0.082 µM [falling, full curve, poor fit]
COc1cc(C(=O)/C=C/c2cccnc2)c([N+](=O)[O-])cc1OC	active: 18.4 µM
